Measured values taken from PMC10560259.
No constants are given. Whether binding was seen depends on the method and setting. In cells and extracts the contact can be indirect. Here binding means that the protein was enriched with, or labelled near, the bait; the list need not be complete.

Protein sequences, listed by entry. Tags and fused reporters are not part of them.
UniProt O94763: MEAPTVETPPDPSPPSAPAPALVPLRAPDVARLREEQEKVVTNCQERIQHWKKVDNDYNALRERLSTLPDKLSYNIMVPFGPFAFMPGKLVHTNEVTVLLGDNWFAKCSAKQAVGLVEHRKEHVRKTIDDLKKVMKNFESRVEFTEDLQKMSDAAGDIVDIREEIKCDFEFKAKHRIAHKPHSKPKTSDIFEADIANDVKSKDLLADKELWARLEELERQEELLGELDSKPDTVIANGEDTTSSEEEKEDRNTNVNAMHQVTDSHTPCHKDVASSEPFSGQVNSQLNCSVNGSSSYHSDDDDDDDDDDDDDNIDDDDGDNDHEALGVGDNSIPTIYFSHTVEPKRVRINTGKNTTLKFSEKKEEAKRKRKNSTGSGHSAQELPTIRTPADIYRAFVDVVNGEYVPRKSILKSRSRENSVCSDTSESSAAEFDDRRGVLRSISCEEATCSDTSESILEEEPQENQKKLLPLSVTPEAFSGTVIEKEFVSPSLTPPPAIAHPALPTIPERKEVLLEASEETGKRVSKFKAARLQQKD
UniProt Q13263: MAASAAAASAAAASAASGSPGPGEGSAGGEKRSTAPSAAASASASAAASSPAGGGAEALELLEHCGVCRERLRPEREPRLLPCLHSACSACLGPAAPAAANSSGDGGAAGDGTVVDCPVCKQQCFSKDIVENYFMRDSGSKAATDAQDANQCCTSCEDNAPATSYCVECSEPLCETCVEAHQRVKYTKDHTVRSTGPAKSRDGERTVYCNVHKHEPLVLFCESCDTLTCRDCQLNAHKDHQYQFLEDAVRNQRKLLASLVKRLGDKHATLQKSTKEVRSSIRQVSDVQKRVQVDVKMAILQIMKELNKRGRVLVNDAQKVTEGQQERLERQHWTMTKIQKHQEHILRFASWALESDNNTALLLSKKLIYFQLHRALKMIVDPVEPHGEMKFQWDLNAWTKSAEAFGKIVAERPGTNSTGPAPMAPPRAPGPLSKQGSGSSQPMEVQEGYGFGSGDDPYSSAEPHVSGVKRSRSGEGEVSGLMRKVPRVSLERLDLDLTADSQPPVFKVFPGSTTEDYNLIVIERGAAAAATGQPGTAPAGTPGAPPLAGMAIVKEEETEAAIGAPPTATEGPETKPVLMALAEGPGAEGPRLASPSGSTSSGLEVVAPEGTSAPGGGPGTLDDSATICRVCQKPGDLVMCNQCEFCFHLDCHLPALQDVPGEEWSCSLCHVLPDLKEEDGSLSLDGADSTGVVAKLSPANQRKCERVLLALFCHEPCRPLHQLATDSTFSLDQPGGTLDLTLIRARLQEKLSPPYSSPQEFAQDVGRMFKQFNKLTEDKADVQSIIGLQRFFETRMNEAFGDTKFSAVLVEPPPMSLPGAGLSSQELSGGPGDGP
UniProt P45974: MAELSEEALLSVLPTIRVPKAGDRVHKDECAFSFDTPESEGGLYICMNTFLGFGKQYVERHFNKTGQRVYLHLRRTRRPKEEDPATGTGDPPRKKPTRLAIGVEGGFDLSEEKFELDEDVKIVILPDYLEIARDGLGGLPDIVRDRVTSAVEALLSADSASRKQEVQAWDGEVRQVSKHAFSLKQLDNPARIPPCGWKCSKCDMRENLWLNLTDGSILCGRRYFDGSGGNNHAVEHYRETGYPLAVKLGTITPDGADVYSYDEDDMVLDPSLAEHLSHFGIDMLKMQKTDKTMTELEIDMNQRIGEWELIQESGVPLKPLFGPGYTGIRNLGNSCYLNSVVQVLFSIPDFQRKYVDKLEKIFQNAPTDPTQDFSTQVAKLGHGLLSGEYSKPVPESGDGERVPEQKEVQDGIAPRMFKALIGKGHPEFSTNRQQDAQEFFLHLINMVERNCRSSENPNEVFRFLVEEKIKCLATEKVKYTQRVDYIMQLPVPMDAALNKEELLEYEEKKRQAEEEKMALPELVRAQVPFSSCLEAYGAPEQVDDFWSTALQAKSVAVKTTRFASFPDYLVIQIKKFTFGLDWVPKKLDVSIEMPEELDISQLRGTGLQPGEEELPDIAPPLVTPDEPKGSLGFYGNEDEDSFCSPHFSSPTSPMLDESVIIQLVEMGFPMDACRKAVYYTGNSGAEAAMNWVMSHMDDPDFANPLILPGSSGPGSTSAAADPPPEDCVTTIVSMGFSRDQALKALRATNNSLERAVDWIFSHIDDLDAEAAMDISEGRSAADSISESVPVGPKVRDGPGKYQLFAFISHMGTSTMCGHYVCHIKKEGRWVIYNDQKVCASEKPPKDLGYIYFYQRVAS
UniProt Q93009: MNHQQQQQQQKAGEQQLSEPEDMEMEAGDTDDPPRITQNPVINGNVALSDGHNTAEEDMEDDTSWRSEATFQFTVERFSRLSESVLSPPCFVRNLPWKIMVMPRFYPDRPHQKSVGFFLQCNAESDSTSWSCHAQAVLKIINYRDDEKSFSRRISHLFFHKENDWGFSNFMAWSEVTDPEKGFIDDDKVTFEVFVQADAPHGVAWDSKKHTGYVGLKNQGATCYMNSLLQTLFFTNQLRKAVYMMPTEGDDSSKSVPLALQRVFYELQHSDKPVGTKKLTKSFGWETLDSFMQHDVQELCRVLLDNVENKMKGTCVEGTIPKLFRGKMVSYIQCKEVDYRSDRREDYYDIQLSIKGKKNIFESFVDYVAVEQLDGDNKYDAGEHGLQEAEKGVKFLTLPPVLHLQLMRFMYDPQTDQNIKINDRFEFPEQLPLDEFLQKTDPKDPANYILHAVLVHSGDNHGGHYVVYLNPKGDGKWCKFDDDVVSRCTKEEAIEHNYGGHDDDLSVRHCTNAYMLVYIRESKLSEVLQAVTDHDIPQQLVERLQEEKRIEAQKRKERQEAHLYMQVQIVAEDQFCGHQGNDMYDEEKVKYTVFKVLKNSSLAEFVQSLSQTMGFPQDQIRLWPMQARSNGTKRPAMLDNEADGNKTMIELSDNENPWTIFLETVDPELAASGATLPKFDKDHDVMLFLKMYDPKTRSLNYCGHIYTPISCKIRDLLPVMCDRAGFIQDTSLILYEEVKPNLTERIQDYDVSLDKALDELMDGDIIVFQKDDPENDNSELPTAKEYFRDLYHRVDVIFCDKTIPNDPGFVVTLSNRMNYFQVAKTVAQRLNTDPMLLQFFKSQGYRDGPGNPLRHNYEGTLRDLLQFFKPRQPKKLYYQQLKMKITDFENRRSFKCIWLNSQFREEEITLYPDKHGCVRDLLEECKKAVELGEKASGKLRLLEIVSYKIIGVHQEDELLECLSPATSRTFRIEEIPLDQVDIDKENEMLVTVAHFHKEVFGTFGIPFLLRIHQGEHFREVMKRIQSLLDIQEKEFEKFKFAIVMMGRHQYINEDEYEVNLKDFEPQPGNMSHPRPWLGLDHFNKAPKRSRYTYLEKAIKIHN

Each substance was assayed against unconventional prefoldin RPB5 interactor (URI), His-tagged, expressed in HEK293T (UniProt O94763) (assay: affinity purification with mass spectrometry; HEK293T cells transfected with His-URI plasmid, anti-His immunoprecipitation, gel cutting, LC-MS/MS).

| binding | Substance |
| --- | --- |
| binds | TRIM28, endogenous in HEK293T (from UniProt Q13263 1-835) |
| binds | USP5, endogenous in HEK293T (from UniProt P45974 1-858) |
| binds | USP7, endogenous in HEK293T (from UniProt Q93009 1-1102) |
